From the supplement of paper PMC10331698
± gives the standard deviation of the averaged measurements. Small differences around the control level are noise.

Assays:
Experiment in all cases: level (log10 ratio to DMSO vehicle control); higher = higher biomarker level / cell amount than vehicle control
[1] = compound: C=CC(=O)OCC(F)(F)C(F)(F)C(F)(F)C(F)(F)C(F)(F)C(F)(F)C(F)(F)C(F)F [1H,1H,9H-Perfluorononyl acrylate]; conditions: 2200 nM; in DMSO
Procedure: (§1)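 BioMAP Diversity Plus panel of 12 human primary cell co-culture systems (3C, 4H, LPS, SAg, BT, BF4T, BE3C, CASM3C, HDF3CGF, KF3CT, MyoF, Mphg). Compounds were added 1 h before stimulation and left for 24 h (MyoF 48 h; BT 72 h for soluble read-outs or 6 d for IgG). Biomarkers were read by ELISA, cytotoxicity by SRB, PBMC viability and proliferation by Alamar Blue. Each well value was divided by the mean of 8 DMSO control wells on the same plate and log10 transformed; duplicate blinded samples were tested at 4 concentrations.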

[2] = compound: O=C(O)CCC(F)(C(F)(F)F)C(F)(F)F [4,4-bis(Trifluoromethyl)-4-fluoropropanoic acid]; conditions: 2200 nM; in DMSO
Procedure: as §1

[3] = compound: O=C(CC(=O)C(F)(F)C(F)(F)C(F)(F)F)c1cccs1 [(Perfluorobutyryl)-2-thenoylmethane]; conditions: 2200 nM; in DMSO
Procedure: as §1

[4] = compound: O=C(O)C(F)(F)C(F)(F)C(F)(F)C(F)(F)C(F)(F)C(F)(F)C(F)(F)F [Ammonium perfluorooctanoate]; conditions: 2200 nM; in DMSO
Procedure: as §1

[5] = compound: OCC(F)(F)OC(F)(F)C(F)(F)OC(F)(F)C(F)(F)OC(F)(F)CO [1H,1H,11H,11H-Perfluorotetraethylene glycol]; conditions: 2200 nM; in DMSO
Procedure: as §1

[6] = compound: O=C(O)C(F)(F)C(F)(F)C(F)(F)C(F)(F)C(F)(F)C(F)(F)C(F)(F)F [Perfluorooctanoic acid]; conditions: 2200 nM; in DMSO
Procedure: as §1

[7] = compound: N=C(N)C(F)(F)C(F)(F)C(F)(F)C(F)(F)C(F)(F)C(F)(F)C(F)(F)F [Perfluorooctanamidine]; conditions: in DMSO
Procedure: as §1

[8] = compound: O=C(O)C(F)(F)OC(F)(F)C(F)(F)OC(F)(F)F [Perfluoro-3,6-dioxaheptanoic acid]; conditions: 2200 nM; in DMSO
Procedure: as §1

[9] = compound: OCC(F)(F)C(F)(F)C(F)(F)C(F)(F)C(F)(F)C(F)(F)C(F)(F)C(F)(F)CO [1H,1H,10H,10H-Perfluorodecane-1,10-diol]; conditions: 2200 nM; in DMSO
Procedure: as §1

[10] = compound: FC(F)(F)C(F)(F)C(F)(F)C(F)(F)C(F)(F)C(F)(F)C(F)(F)C(F)(F)CCS [2-(Perfluorooctyl)ethanthiol]; conditions: in DMSO
Procedure: as §1

[11] = compound: O=C(O)C(F)(F)OC(F)(F)C(F)(F)OC(F)(F)C(F)(F)OC(F)(F)C(F)(F)C(F)(F)C(F)(F)F [Perfluoro-3,6,9-trioxatridecanoic acid]; conditions: 2200 nM; in DMSO
Procedure: as §1

[12] = compound: CCOC(=O)CC(=O)C(F)(F)C(F)(F)F [Ethyl pentafluoropropionyl acetate]; conditions: 2200 nM; in DMSO
Procedure: as §1

[13] = compound: O=C(O)C(F)(F)C(F)(F)C(F)(F)C(F)(F)C(F)(F)C(F)(F)C(F)(F)C(F)(F)F [Perfluorononanoic acid]; conditions: 2200 nM; in DMSO
Procedure: as §1

[14] = compound: O=C(O)C(F)(F)C(F)(F)C(F)(F)C(F)(F)C(F)(F)C(F)(F)C(F)(F)C(F)(F)C(F)(F)F [Perfluorodecanoic acid]; conditions: in DMSO
Procedure: as §1

Test System	level (log10) [1]	level (log10) [2]	level (log10) [3]	level (log10) [4]	level (log10) [5]	level (log10) [6]	level (log10) ([7]; 2200 nM)	level (log10) ([7]; 6700 nM)	level (log10) ([7]; 20000 nM)	level (log10) ([7]; 60000 nM)	level (log10) [8]	level (log10) [9]	level (log10) ([10]; 740 nM)	level (log10) ([10]; 2200 nM)	level (log10) [11]	level (log10) [12]	level (log10) [13]	level (log10) ([14]; 2200 nM)	level (log10) ([14]; 6700 nM)	level (log10) ([14]; 20000 nM)
HDF3CGF:CXCL8/IL-8	-0.0015 ± 0.0064	0.0315 ± 0.029	0.011 ± 0.0028	-0.002 ± 0.0099	0.008 ± 0.021	0.0055 ± 0.0078	-0.0015 ± 0.0078	0.006 ± 0.0014	0.0135 ± 0.005	0.007	-0.0025 ± 0.00071	0.0035 ± 0.025	-0.0035 ± 0.015	0.0005 ± 0.0035	0.0115 ± 0.0064	-0.0005 ± 0.00071	-0.0065 ± 0.015	-0.0015 ± 0.005	0.0065 ± 0.005	0.02 ± 0.011
SAg:CCL2/MCP-1	0.0135 ± 0.071	-0.0015 ± 0.021	-0.0115 ± 0.019	-0.009 ± 0.0085	0.0105 ± 0.057	0.009 ± 0.0014	0.0045 ± 0.0064	-0.004 ± 0.0014	0.0225 ± 0.005	-0.015	0.021 ± 0.011	0.0145 ± 0.018	0.0005 ± 0.067	-0.0105 ± 0.025	0.0125 ± 0.029	0.016 ± 0.058	0.004 ± 0.02	-0.009 ± 0.02	0.0065 ± 0.0064	-0.017 ± 0.0014
SAg:SRB	-0.0025 ± 0.0021	0.003 ± 0.011	-0.004 ± 0.0057	-0.0045 ± 0.013	0.0065 ± 0.0021	-0.0145 ± 0.0078	-0.015 ± 0.014	-0.0025 ± 0.0078	0.0025 ± 0.018	-0.084	-0.0205 ± 0.011	0.004 ± 0.024	0.003 ± 0.023	0.0065 ± 0.005	0.0045 ± 0.0078	0.004 ± 0.0085	-0.004 ± 0.0099	0.0095 ± 0.0021	-0.0035 ± 0.012	-0.008 ± 0.013
CASM3C:CCL2/MCP-1	-0.014 ± 0.0028	0.0115 ± 0.06	0.027 ± 0.0057	-0.002 ± 0.011	0.018 ± 0.038	0.004 ± 0.031	0.0325 ± 0.025	0.008 ± 0.024	0.011 ± 0.034	0.085	-0.0385 ± 0.057	0.0085 ± 0.025	0.007 ± 0.027	0.0015 ± 0.012	-0.0065 ± 0.0021	0.0005 ± 0.022	-0.036 ± 0.052	0.0075 ± 0.035	0.006 ± 0.02	0 ± 0.0042
3C:CD87/uPAR	0.004 ± 0.0057	0.057 ± 0.023	-0.0395 ± 0.013	-0.0075 ± 0.00071	0.0165 ± 0.033	0.01 ± 0.025	0.0445 ± 0.021	0.0265 ± 0.059	0.0135 ± 0.028	0.042	-0.005 ± 0.016	-0.0225 ± 0.036	-0.0145 ± 0.029	-0.0255 ± 0.064	0.019 ± 0.0085	0.006 ± 0.016	0.004 ± 0.0071	0.006 ± 0.035	0.011 ± 0.02	-0.01 ± 0.02
LPS:CXCL8/IL-8	0.0075 ± 0.028	0.0535 ± 0.00071	-0.0065 ± 0.042	0.0115 ± 0.036	-0.0015 ± 0.029	0.027 ± 0.061	-0.003 ± 0.05	-0.019 ± 0.027	-0.005 ± 0.016	-0.028	0.006 ± 0.02	0.0105 ± 0.033	-0.032 ± 0.051	-0.025 ± 0.023	0.008 ± 0.0057	-0.0115 ± 0.018	0.002 ± 0.0057	0.019 ± 0.0071	0.027 ± 0.0071	0.0115 ± 0.0064
BE3C:CD54/ICAM-1	0.001 ± 0.016	-0.004 ± 0.011	0.003 ± 0.013	0.009 ± 0.0057	0.024 ± 0.027	0.019 ± 0.021	-0.0025 ± 0.015	-0.017 ± 0.0028	-0.019 ± 0.0057	0.027	0.003 ± 0.02	-0.0015 ± 0.0078	0.0145 ± 0.037	0.0055 ± 0.022	0.0085 ± 0.019	-0.001 ± 0.045	-0.011 ± 0.017	0.01 ± 0.024	0.085	-1.02 ± 0.012
4H:CCL2/MCP-1	-0.015 ± 0.025	0.0275 ± 0.054	-0.005 ± 0.011	0.005 ± 0.0099	0.0135 ± 0.07	0.009 ± 0.054	0.0185 ± 0.0064	0.0095 ± 0.011	-0.0055 ± 0.0064	0.061	0.0125 ± 0.037	-0.0055 ± 0.098	0.002 ± 0.035	-0.016 ± 0.0014	0.007 ± 0.0085	0.007 ± 0.035	0.0075 ± 0.061	0 ± 0.011	-0.014 ± 0.0057	-0.0255 ± 0.03
HDF3CGF:CCL2/MCP-1	-0.026 ± 0.03	0.004 ± 0.023	0.0305 ± 0.0092	-0.0415 ± 0.0035	0.0035 ± 0.023	-0.043 ± 0.02	0.0085 ± 0.037	-0.0075 ± 0.0035	-0.005 ± 0.018	-0.068	-0.0065 ± 0.03	-0.015 ± 0.014	-0.0055 ± 0.012	-0.0155 ± 0.0078	-0.001 ± 0.0099	-0.009 ± 0.02	-0.0025 ± 0.06	-0.019 ± 0.02	-0.0595 ± 0.0078	0.042 ± 0.034
BT:sIL-17A	0.068 ± 0.21	0.054 ± 0.0014	-0.004 ± 0.073	0.0855 ± 0.029	-0.02 ± 0.05	0.094 ± 0.061	0.148 ± 0.12	0.1795 ± 0.00071	-0.145 ± 0.044	-0.141	-0.122 ± 0.028	-0.105 ± 0.011	-0.094 ± 0.044	-0.044 ± 0.079	-0.0045 ± 0.011	-0.076 ± 0.064	-0.0945 ± 0.27	-0.062 ± 0.13	-0.0525 ± 0.0092	-0.0075 ± 0.17
LPS:CCL2/MCP-1	0.015 ± 0.014	0.0425 ± 0.0064	0.002 ± 0.033	0.0085 ± 0.0092	0.017 ± 0.048	0.015 ± 0.0085	0.013 ± 0.018	-0.0005 ± 0.021	-0.003 ± 0.0028	-0.023	-0.003 ± 0.042	-0.0025 ± 0.029	0.01 ± 0.031	0.0235 ± 0.0078	-0.036 ± 0.024	-0.0185 ± 0.011	0.005 ± 0.014	0.0075 ± 0.033	-0.0005 ± 0.012	-0.0015 ± 0.0064
BE3C:CD87/uPAR	0.003 ± 0.038	-0.001 ± 0.025	0.003 ± 0.0085	0.0105 ± 0.019	0.011 ± 0.027	-0.0115 ± 0.093	0.0305 ± 0.015	-0.001 ± 0.014	-0.0035 ± 0.057	0.083	0.0105 ± 0.023	0.019 ± 0.024	0.0025 ± 0.015	0.005 ± 0.017	0.0785 ± 0.042	0.0075 ± 0.054	0.0175 ± 0.033	0.0315 ± 0.012	0.05 ± 0.016	-0.554 ± 0.011

Two entries drawn at random from the list so far:
Test System	level (log10) [1]	level (log10) [2]	level (log10) [3]	level (log10) [4]	level (log10) [5]	level (log10) [6]	level (log10) ([7]; 2200 nM)	level (log10) ([7]; 6700 nM)	level (log10) ([7]; 20000 nM)	level (log10) ([7]; 60000 nM)	level (log10) [8]	level (log10) [9]	level (log10) ([10]; 740 nM)	level (log10) ([10]; 2200 nM)	level (log10) [11]	level (log10) [12]	level (log10) [13]	level (log10) ([14]; 2200 nM)	level (log10) ([14]; 6700 nM)	level (log10) ([14]; 20000 nM)
BT:sIL-17A	0.068 ± 0.21	0.054 ± 0.0014	-0.004 ± 0.073	0.0855 ± 0.029	-0.02 ± 0.05	0.094 ± 0.061	0.148 ± 0.12	0.1795 ± 0.00071	-0.145 ± 0.044	-0.141	-0.122 ± 0.028	-0.105 ± 0.011	-0.094 ± 0.044	-0.044 ± 0.079	-0.0045 ± 0.011	-0.076 ± 0.064	-0.0945 ± 0.27	-0.062 ± 0.13	-0.0525 ± 0.0092	-0.0075 ± 0.17
4H:CCL2/MCP-1	-0.015 ± 0.025	0.0275 ± 0.054	-0.005 ± 0.011	0.005 ± 0.0099	0.0135 ± 0.07	0.009 ± 0.054	0.0185 ± 0.0064	0.0095 ± 0.011	-0.0055 ± 0.0064	0.061	0.0125 ± 0.037	-0.0055 ± 0.098	0.002 ± 0.035	-0.016 ± 0.0014	0.007 ± 0.0085	0.007 ± 0.035	0.0075 ± 0.061	0 ± 0.011	-0.014 ± 0.0057	-0.0255 ± 0.03
